In patent US20040121991A1, “Dehydroepiandrosterone (DHEA) congeners for prevention and/or treatment of ulcers” (priority 2002, published 2004):
For at least one compound, name, drawing or mass did not settle the structure.

System: TNBS-induced colonic damage
Type: in vivo, Male Wistar rats
Settings: dexamethasone 0.3 mg/kg oral once daily; vs saline + TNBS; end of study
Method: In this Example, the effects of DHEA were evaluated in the TNBS model (see, e.g., Boughton-Smith et al., 1988; Morris et al., 1989; Reuter et al., 1996) at a defined oral dose administered twice a day by gavage, using a low intracolonic concentration of TNBS (10 mg). This challenge dose of TNBS is known to generate reproducible yet not unduly severe mucosal injury in the colon, as determined 3 days after instillation. In this current investigation, colonic macroscopic injury has been assessed. In addition to DHEA, the effect of a single daily low oral dose of dexamethasone, which has a broad profile of anti-inflammatory actions, was also evaluated in this model.
Male Wistar rats (220-300 g) were randomised into groups before commencement of the study. On day 0, the rats were transiently anaesthetised with ether and TNBS (10 mg in 0.25 ml of 50% ethanol) was instilled into the colon using a soft plastic catheter inserted in the rat rectum. The rats were allowed to recover with free access to food and drinking water. […] Macroscopic scoring of distal 8 cm of colon was measured as the primary efficacy parameter. In addition, the weight of the colonic segment was assessed as an indirect and non-specific marker of oedema, and the body weight of the animals was determined each day of the study. […]

C[C@@H]1C[C@H]2[C@@H]3CCC4=CC(=O)C=C[C@]4(C)[C@@]3(F)[C@@H](O)C[C@]2(C)[C@@]1(O)C(=O)CO [dexamethasone]
colon weight of the standard segment (index of inflammatory oedema): significant (P<0.01) reduction
